The record followed here is PMC10508264, “Exploring the antioxidant, antimicrobial, cytotoxic and biothermodynamic properties of novel morpholine derivative bioactive Mn(II), Co(II) and Ni(II) complexes – combined experimental and theoretical measurements towards DNA/BSA/SARS-CoV-2 3CL^Pro” (RSC Medicinal Chemistry, 2023).

Series [1] has as its system CT-DNA. Description: DNA binding by cyclic voltammetry. To be noted: for Shift of formal electrode potential, bound vs free: M^1+/M^2+ couple; for Ratio of binding constants K^1+/K^2+ (K[red]/K[oxi]), found (I): method I, head is a drawing; for S (bp), binding site size: method II; for Do (diffusion coefficient), bound / E° (or E1/2), bound / Peak current ratio (Ipa/Ipc; head is a drawing), bound / ΔEP, bound: with DNA; for Do (diffusion coefficient), free / E° (or E1/2), free / Peak current ratio (Ipa/Ipc; head is a drawing), free / ΔEP, free: without DNA; for ΔEP, free: scan rate 100 mV s^−1. The method, then:
The changes in peak current as well as peak potential were monitored while concentrations of CT-DNA were increased (0–10 μM) in each sample solution.[13,36]
The CV approach is one of the most important methods for evaluating the binding mechanism of a DNA–complex adduct. The CV properties of all test samples in the presence and absence of DNA were executed at a scan rate (v) of 0.1 V s^−1 with a potential range of +2 to −2 in a Tris–HCl (5 mM)/NaCl (50 mM) (pH = 7.2) solution. The M^1+/M^2+ redox couple is caused by complexes that reveal a single anodic and cathodic peak. […] (Fig. S31 ^† and Table 6).
ΔEP is peak-to-peak separation = (EPa − EPc); E° (or E1/2) denotes the formal electrode potential = 1/2(EPa + EPc); [drawing 41] [drawing 42] and [drawing 43] represent the formal electrode potential of the M^1+/M^2+ couple in the bound and free forms, respectively. [drawing 44] = +19 mV (HL), +18 mV (1), +16 mV (2), +16 mV (3). Ipa is anodic peak current, Ipc is cathodic peak current. K^1+ is the binding constant of the reduction process, K^2+ is the binding constant of the oxidation process. S represents the binding site size of base pairs (bp) with a molecule of complex, scan rate is 100 mV s^−1, binding constant (Kb) values observed from the linear plots of log(1/[DNA]) versus log(I/I0 − I) for oxidation and reduction, (I0 − IDNA)/IDNA = Cp/Cfversus [DNA] and I^2p versus(I^2po − I^2p)/[DNA] by methods I, II and III, respectively.
While the substances often bind to DNA through intercalation, the peak potential shifts in a positive direction. When the compounds bind to DNA through minor or major grooves or electrostatic attractions, the peak potential shifts occur in a negative direction. It was observed that the consistent movement of peak potential shifts in the positive direction during increments of DNA with test substances. The binding mode in compound–DNA adducts has been described as primarily intercalation (Fig. S31 ^†), and it is also attributed to the presence of 2,2′-bipyridine and morpholine fused aromatic planar systems in mixed ligand complexes, which can create inclusion through intercalation due to hydrophobic and π–π stacking interactions in the DNA base pairs. It is also supported by the evaluated outcomes from UV-vis spectral, emission titration, viscometric, and biothermodynamic properties. Furthermore, the observed values of Kb, S, and the ratio of binding constants (K^1+/K^2+) for M^1+/M^2+ couple systems further confirmed the binding affinity via intercalation. Also, the subsequent eqn (24)–(35) are applied to determine the above parameters.[88,89]Eqn (24) is acquired from modification of the Stern–Volmer eqn (14) (Table 6). The Kb values for all samples were estimated from the linear regression plot of log(1/[DNA]) versus log(I/I0 − I) by method I (Fig. S32 ^† and Table 6). Eqn (26) was obtained from revision of eqn (25). Also, binding site size (S, bp) and Kb are estimated from eqn (30) from the linear regression plot of (Cp/Cf) versus [DNA] by method-II[90–92] (Fig. S33 ^† and Table 6). In addition, base-pair sites with a molecule of the compound are referred to as “binding site size” (S), and the evaluated S values were found in the range from 0.1718 to 0.4599 bp. […] In the Nernst eqn (31) and (32) for the galvanic cell, [drawing 58] , the formal electrode potentials of the M^1+/M^2+ couple in their bound and free forms are E1/2 or [drawing 59] and [drawing 60] , respectively. As a result of the variable binding state [M^1+/M^2+] and the delayed mass transfer of test compounds that interacted with DNA fragments, the addition of DNA to the compound solution enabled a change in the redox potential to a higher positive direction and a drop in both anodic and cathodic peak currents. In particular, the equilibrium of M^1+/M^2+ is influenced by electrostatic or hydrophobic interactions.

Series [2] relates to CT-DNA. In words: DNA thermal denaturation / biothermodynamic properties. The format is binding.

Turning to `[Mn+2].[O-]c1ccccc1N=Cc1ccc(N2CCOCC2)cc1.[O-]c1ccccc1N=Cc1ccc(N2CCOCC2)cc1.c1ccc(-c2ccccn2)nc1` [(1)], in the series with CT-DNA [1], the “Shift of formal electrode potential, bound vs free” value (from here on “Shift … bound vs free”) is “+18 mV”; the “Ratio of binding constants K^1+/K^2+ (K[red]/K[oxi]), found (I)” value (from here on “Ratio … (I)”) was determined as 0.7874; the “S (bp), binding site size” value turned out to be 0.287 bp; the “Do (diffusion coefficient), bound” value is reported as 3.1295 × 10^−5 cm^2 s^−1. In the series with CT-DNA [1], the “E° (or E1/2), bound” value was found to be 0.7310 V; the “Peak current ratio (Ipa/Ipc; head is a drawing), bound” value turned out to be 0.4800; the “ΔEP, bound” value turned out to be 0.1477 V; the “Do (diffusion coefficient), free” value is 3.1445 × 10^−5 cm^2 s^−1. Further, in the series with CT-DNA [1], the “E° (or E1/2), free” value was 0.7126 V; the “Peak current ratio (Ipa/Ipc; head is a drawing), free” value came out at 0.6194; the “ΔEP, free” value turned out to be 0.3801 V. Also, in the series with CT-DNA [2] (10 °C (283 K)), the “ΔG°” value was -6.2919 kcal/mol. In addition, in the series with CT-DNA [2] (10–40 °C (283–313 K)), the “ΔH°” value is -3.3331 kcal/mol and the “ΔS°” value was -0.0061793 kcal/mol. Also, the “ΔG°” value with CT-DNA [2] (25 °C (298 K)) was -5.8081 kcal/mol. For the same compound, the “ΔG°” value with CT-DNA [2] (40 °C (313 K)) was -5.5682 kcal/mol. Further, in the series with CT-DNA [2] (at Tm), the “ΔG°” value was -5.3376 kcal/mol, the “ΔH°” value is -8.5588 kcal/mol and the “ΔS°” value is -0.0092304 kcal/mol.
On to `[Co+2].[O-]c1ccccc1N=Cc1ccc(N2CCOCC2)cc1.[O-]c1ccccc1N=Cc1ccc(N2CCOCC2)cc1.c1ccc(-c2ccccn2)nc1` [(2)], for which, in the series on CT-DNA [1], the “Shift … bound vs free” value is recorded as “+16 mV”; the “Ratio … (I)” value turned out to be 0.7973; the “S (bp), binding site size” value is given as 0.125 bp; the “Do (diffusion coefficient), bound” value was 4.0684 × 10^−5 cm^2 s^−1. Moreover, in the series with CT-DNA [1], the “E° (or E1/2), bound” value is 0.8177 V; the “Peak current ratio (Ipa/Ipc; head is a drawing), bound” value stood at 0.4073; the “ΔEP, bound” value was determined as 0.1553 V; the “Do (diffusion coefficient), free” value is 4.1374 × 10^−5 cm^2 s^−1. For the same compound, in the series with CT-DNA [1], the “E° (or E1/2), free” value turned out to be 0.8015 V; the “Peak current ratio (Ipa/Ipc; head is a drawing), free” value is listed as 0.6307; the “ΔEP, free” value was 0.2790 V. The “ΔG°” value in the series with CT-DNA [2] (10 °C (283 K)) is -6.4673 kcal/mol. For the same compound, in the series on CT-DNA [2] (10–40 °C (283–313 K)), the “ΔH°” value was -3.7445 kcal/mol and the “ΔS°” value was -0.0074978 kcal/mol. Further, the “ΔG°” value in the series with CT-DNA [2] (25 °C (298 K)) is -5.8277 kcal/mol. In addition, in the series on CT-DNA [2] (40 °C (313 K)), the “ΔG°” value is -5.593 kcal/mol. Besides, in the series on CT-DNA [2] (at Tm), the “ΔG°” value was -5.4118 kcal/mol, the “ΔH°” value was -8.1656 kcal/mol and the “ΔS°” value is -0.0078457 kcal/mol.
Take `[Ni+2].[O-]c1ccccc1N=Cc1ccc(N2CCOCC2)cc1.[O-]c1ccccc1N=Cc1ccc(N2CCOCC2)cc1.c1ccc(-c2ccccn2)nc1` [(3)]: in the series on CT-DNA [1], the “Shift … bound vs free” value is on record as “+16 mV”; the “Ratio … (I)” value is recorded as 0.8003; the “S (bp), binding site size” value worked out at 0.382 bp; the “Do (diffusion coefficient), bound” value is on record as 3.1983 × 10^−5 cm^2 s^−1. Further, in the series with CT-DNA [1], the “E° (or E1/2), bound” value was 0.7688 V; the “Peak current ratio (Ipa/Ipc; head is a drawing), bound” value turned out to be 0.2189; the “ΔEP, bound” value came out at 0.1375 V; the “Do (diffusion coefficient), free” value is reported as 3.7063 × 10^−5 cm^2 s^−1. Moreover, in the series on CT-DNA [1], the “E° (or E1/2), free” value was 0.7528 V; the “Peak current ratio (Ipa/Ipc; head is a drawing), free” value was 1.8405; the “ΔEP, free” value is recorded as 0.2686 V. In addition, the “ΔG°” value in the series on CT-DNA [2] (10 °C (283 K)) is -6.4218 kcal/mol. Also, in the series on CT-DNA [2] (10–40 °C (283–313 K)), the “ΔH°” value was -3.6540 kcal/mol and the “ΔS°” value was -0.007216 kcal/mol. Further, the “ΔG°” value in the series with CT-DNA [2] (25 °C (298 K)) is -5.8085 kcal/mol. In the series with CT-DNA [2] (40 °C (313 K)), the “ΔG°” value is -5.5798 kcal/mol. In the series with CT-DNA [2] (at Tm), the “ΔG°” value is -5.3633 kcal/mol, the “ΔH°” value is -8.3598 kcal/mol and the “ΔS°” value was -0.0085613 kcal/mol.
Turning to `Oc1ccccc1N=Cc1ccc(N2CCOCC2)cc1` [(HL), 2-(4-morpholinobenzylideneamino)phenol], in the series on CT-DNA [1], the “Shift … bound vs free” value is listed as “+19 mV”; the “Ratio … (I)” value amounted to 0.7214; the “S (bp), binding site size” value is on record as 0.452 bp; the “Do (diffusion coefficient), bound” value was 2.5809 × 10^−5 cm^2 s^−1. In the series with CT-DNA [1], the “E° (or E1/2), bound” value is given as 0.3680 V; the “Peak current ratio (Ipa/Ipc; head is a drawing), bound” value is listed as 1.3424; the “ΔEP, bound” value stood at 0.8890 V; the “E° (or E1/2), free” value stood at 0.3490 V. In the series with CT-DNA [1], the “Peak current ratio (Ipa/Ipc; head is a drawing), free” value came out at 1.4295 and the “ΔEP, free” value is reported as 0.7420 V. In addition, the “ΔG°” value in the series on CT-DNA [2] (10 °C (283 K)) is -6.1124 kcal/mol. In addition, in the series on CT-DNA [2] (10–40 °C (283–313 K)), the “ΔH°” value is -3.2141 kcal/mol and the “ΔS°” value is -0.0059041 kcal/mol. In the series with CT-DNA [2] (25 °C (298 K)), the “ΔG°” value was -5.7004 kcal/mol. For the same compound, the “ΔG°” value with CT-DNA [2] (40 °C (313 K)) is -5.4174 kcal/mol. For the same compound, in the series on CT-DNA [2] (at Tm), the “ΔG°” value was -5.0249 kcal/mol, the “ΔH°” value is -9.8084 kcal/mol and the “ΔS°” value is -0.0137852 kcal/mol.
